Measurements published in PubChem BioAssay AID1671190 (National Center for Advancing Translational Sciences (NCATS), 2021).
Where “and” joins values, the source holds several entries; their conditions need not be identical. Identical values can stand only once. About 6,100 (1.1%) of roughly 580,000 compounds were called active. The inconclusive results got no clear call from the source; some entries with a clear call stand among them for comparison. Calls follow the shape of the dose curve; as a rule, active = well fitted inhibition curve with a large enough effect; inconclusive = small, poorly fitted or top-dose-only effect, or another doubt; inactive = no such curve, though single readings can be large or run the other way. A potency beside an inconclusive call is a rough fit, not a confirmed value.

Amino acid sequences for entries named in this document (tags omitted). A change or cut given only in a name is not applied to a line headed by its entry.
UniProt P18054: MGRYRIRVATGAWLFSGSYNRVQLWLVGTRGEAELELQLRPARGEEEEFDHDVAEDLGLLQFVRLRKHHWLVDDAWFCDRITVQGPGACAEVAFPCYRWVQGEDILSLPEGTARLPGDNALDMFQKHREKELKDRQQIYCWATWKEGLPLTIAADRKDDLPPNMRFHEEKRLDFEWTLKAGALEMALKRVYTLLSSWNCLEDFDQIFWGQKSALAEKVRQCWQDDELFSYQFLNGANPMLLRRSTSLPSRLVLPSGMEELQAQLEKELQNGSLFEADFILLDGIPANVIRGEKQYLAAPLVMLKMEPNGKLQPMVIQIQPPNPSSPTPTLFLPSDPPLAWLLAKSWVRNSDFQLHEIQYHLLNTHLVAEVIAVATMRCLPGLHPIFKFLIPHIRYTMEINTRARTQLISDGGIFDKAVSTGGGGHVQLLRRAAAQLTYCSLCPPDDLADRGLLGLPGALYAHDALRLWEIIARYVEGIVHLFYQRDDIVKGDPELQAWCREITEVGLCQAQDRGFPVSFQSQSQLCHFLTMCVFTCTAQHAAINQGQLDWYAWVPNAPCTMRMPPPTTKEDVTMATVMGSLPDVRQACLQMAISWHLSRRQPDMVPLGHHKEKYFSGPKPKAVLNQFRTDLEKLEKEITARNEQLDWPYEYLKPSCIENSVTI

target: Polyunsaturated fatty acid lipoxygenase ALOX12 (Homo sapiens) (UniProt P18054); test: Primary qHTS assay for inhibitors of human arachidonate 12S-lipoxygenase (ALOX12): Round 2; conditions: purified 12hLO, xylenol orange hydroperoxide absorbance; series mostly up to 108 µM
Outline: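 Purified human 12hLO at 150 nM in 25 mM Hepes, 0.01% Triton X-100, pH 7.0, preincubated 15 min at room temperature with compound. Reaction started with 40 uM arachidonic acid, 30 min at room temperature. Hydroperoxide measured by Fe-xylenol orange, 573/405 nm absorbance ratio.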
Potency is read from the fitted curve at half-maximal effect.

| Compound | Potency |
| --- | --- |
| S=C(NCCCCCNC(=S)Nc1cccc(Cl)c1)Nc1cccc(Cl)c1 | inconclusive: 39.8 µM [inhibitor, partial curve, poor fit] |
| CN(c1ccccc1)S(=O)(=O)c1cccc(NC(=O)Cc2n[nH]c(=O)c3ccccc23)c1 | inconclusive: 100 µM [inhibitor, partial curve, poor fit] and inconclusive: 79.4 µM [inhibitor, partial curve, poor fit] |
| O=C1/C(=C\c2cccc([N+](=O)[O-])c2O)SC(=S)N1Cc1ccccc1 | inconclusive: 35.5 µM [inhibitor, partial curve, poor fit] |
| O=[N+]([O-])c1cccc(-c2noc([C@@H]3Cc4nc[nH]c4CN3CC3CCCCC3)n2)c1 | inactive |
| CCn1cnc2cc(NCc3ccc(C)cc3)ccc21 | inactive |
| O=C(CSc1nc2ccccc2o1)NCC1CCCCC1 | inactive |
| Cc1ccccc1NC(=O)C1CC(=O)N(c2n[nH]c3cc(Br)ccc23)C1 (stereo unspecified) | inconclusive: 70.8 µM [inhibitor, partial curve, poor fit] |
| Cc1nn(CN2CCN(Cc3ccccc3)CC2)c(=O)c2ccccc12 | inactive |
| CCN1C(=O)[C@@H]2[C@@H]3CN(S(=O)(=O)c4ccc(C)cc4)[C@@H](c4ccccc4)[C@@H]3C(=O)C[C@@H]2C1=O | inconclusive: 112 µM [inhibitor, single point] |
| COc1ccc(Nc2nnc(SCC(=O)N(CC(C)C)C3CCS(=O)(=O)C3)s2)cc1 (stereo unspecified) | inconclusive: 79.4 µM [inhibitor, partial curve, poor fit] |
| CC(C)NC(=O)C1COC2(CCN(C(=O)c3ccc(Cl)cc3)CC2)N1C(=O)c1cccc(F)c1 (stereo unspecified) | inactive |
| COc1cc(/C=C(/C#N)C(=O)O)cc(Cl)c1OC(C)C | inconclusive: 112 µM [inhibitor, single point] |
| CCN1C(=NCCc2ccccn2)N[C@@H](c2cccc(F)c2)C(C(=O)OC)=C1C | inconclusive: 50.1 µM [inhibitor, single point] |
| CCC1CCCCN1S(=O)(=O)c1ccc(C(=O)N(CCCN(C)C)c2nc3cc4c(cc3s2)OCO4)cc1 (stereo unspecified) | inconclusive: 39.8 µM [inhibitor, partial curve, poor fit] |
| CCNC(=O)C1CC(=O)N(Cc2ccc3c(c2)OCO3)C(=Nc2ccc(F)cc2)S1 (stereo unspecified) | inactive |
| Cn1c(=O)c2c(nc(SCC(=O)O)n2Cc2cccc(Cl)c2)n(C)c1=O | inconclusive: 44.7 µM [inhibitor, partial curve, poor fit] |
| Cc1cc(C)c(S(=O)(=O)NCCSCc2ccco2)c(C)c1 | inconclusive: 39.8 µM [inhibitor, partial curve, poor fit] |
| CC1CCN(C(=O)c2ccccc2OCC2CCCN(C(C)C)C2)CC1 (stereo unspecified) | inactive |
| O=C(NC1CCC(c2ccccc2)CC1)C1CC2CCCC(C1)C2=O (stereo unspecified) | inconclusive: 89.1 µM [inhibitor, partial curve, poor fit] |
| Cc1ccc(SCC(=O)NNC(=O)c2ccccc2)cc1C | inconclusive: 39.8 µM [inhibitor, partial curve] |
| COc1cccc(NC(=O)N2CCCC2C(=O)NC23CC4CC(CC(C4)C2)C3)c1 (stereo unspecified) | inactive |

| Compound | Potency |
| --- | --- |
| COc1ccc(CC(=O)Nc2nonc2-c2ccc(Br)cc2)cc1 | inconclusive: 2.82 µM [inhibitor, full curve, poor fit] |
| COCc1cc(C)nc2sc(C(=O)Nc3ccc(OC)cc3)c(N)c12 | inconclusive: 63.1 µM [inhibitor, partial curve, poor fit] |
| COc1ccc(CN2CCC3(CC2)CC(=O)c2ccc(Cl)cc2O3)cc1 | inconclusive: 8.91 µM [inhibitor, full curve] |
| Cc1[nH][nH]c(=O)c1C(c1c(C)[nH][nH]c1=O)c1cn(Cc2ccc(Cl)c(Cl)c2)c2ccccc12 | inconclusive: 79.4 µM [inhibitor, single point] |
| Cc1ccc(C)c(Nc2nnc(-c3ccc(C)c(S(=O)(=O)N4CCN(C)CC4)c3)c3ccccc23)c1 | inactive |
| CC(C)[C@H](NC(=O)[C@@H]1CSC2c3ccccc3C(=O)N21)C(=O)NCc1ccco1 (stereo partly specified) | inconclusive: 5.01 µM [inhibitor, full curve, poor fit] |
| CCOC(=O)CSc1nnc(COc2ccc3ccccc3c2)o1 | inactive |
| CN(C)CCCNC(=O)C[C@H]1C[C@H](C(=O)N2CCCCC2)[C@@]2(CCc3ccccc3)c3[nH]c4ccc(Cl)cc4c3CCN2C1=O | inconclusive: 50.1 µM [inhibitor, partial curve, poor fit] |
| CCn1nc(C)c2c(-c3ccccc3)cc(=O)n(C(C)C(=O)Nc3cccc(F)c3)c21 (stereo unspecified) | inconclusive: 112 µM [inhibitor, partial curve, poor fit] |
| CCOc1ccc(NC(=O)CSc2oc(-c3cccs3)nc2S(=O)(=O)c2ccc(C)cc2)cc1 | inconclusive: 44.7 µM [inhibitor, partial curve, poor fit] |
| COC(=O)CNC(=O)c1cc(-c2ccc(Cl)cc2Cl)c2cnn(C)c2n1 | inconclusive: 44.7 µM [inhibitor, partial curve, poor fit] |
| CCOC(=O)CCCCCC(=O)Nc1ccc2c(c1)C(=O)N([C@H](C)CO)C[C@H](C)[C@H](CN(C)C(=O)C1CCCCC1)OCCCC[C@@H](C)O2 | inconclusive: 70.8 µM [inhibitor, single point] |
| CCN(CC)S(=O)(=O)c1ccc(NC(=O)Cc2nn(C)c(=O)c3ccccc23)cc1 | inconclusive: 3.98 µM [inhibitor, full curve, poor fit] |
| COc1cc(/C=C2\NC(=S)N(C)C2=O)ccc1OCc1ccccc1F | inactive |
| OCCc1cnccn1 | inactive |
| N#CC1=C(N)Oc2cc(N)ccc2C1c1cccc(F)c1 (stereo unspecified) | inconclusive: 44.7 µM [inhibitor, partial curve, poor fit] |
| CSc1cccc(CN2CCC(n3nccc3NC(=O)C3CC3)CC2)c1 | inconclusive: 79.4 µM [inhibitor, single point] |
| CC(O)c1cc2n(n1)CCN(CCS(=O)(=O)c1ccccc1)C2 (stereo unspecified) | inactive |
| COCCNC(=O)CCCN1C(=O)COc2ccc(C(=O)COc3ccc(C(C)(C)C)cc3)cc21 | inactive |
| CCCCC[n+]1ccn(C2=C([O-])c3ccccc3C(=O)/C2=N\S(=O)(=O)c2ccccc2)c1 | inconclusive: 35.5 µM [inhibitor, single point] |
| COc1ccc(NC2SC(=O)N(CC(=O)O)C2=O)cc1 (stereo unspecified) | inconclusive: 15.8 µM [inhibitor, partial curve, poor fit] |

| Compound | Potency |
| --- | --- |
| CN(C)CCNC(=O)c1ccnc(-c2nnc3ccc(N(C)c4ccccc4)nn23)c1 | inconclusive: 39.8 µM [inhibitor, full curve] |
| O=C1CCCc2c1cc(C(=O)Nc1ccc(Br)cn1)c(=O)n2-c1ccccc1 | inconclusive: 3.55 µM [inhibitor, full curve, poor fit] |
| O=C(CSc1ccccc1C(=O)O)c1ccc([N+](=O)[O-])cc1 | inactive |
| COc1ccc(/C=C2\SC(=S)N(CCC(=O)Nc3cccc(O)c3)C2=O)cc1 | inconclusive: 89.1 µM [inhibitor, partial curve, poor fit] |
| COc1cc(/C=C2/NC(=O)NC2=O)ccc1OCc1cccc(F)c1 | inconclusive: 112 µM [inhibitor, single point] |
| CSc1ccc(CN2CCN(Cc3ccc([N+](=O)[O-])cc3)CC2)cc1 | inconclusive: 31.6 µM [inhibitor, partial curve, poor fit] |
| COc1ccc(S(=O)(=O)Oc2ccccc2C(=S)N2CCOCC2)cc1 | inconclusive: 44.7 µM [inhibitor, partial curve, poor fit] |
| CCC(Sc1ncc(S(=O)(=O)c2ccc(C)cc2)c(=O)[nH]1)C(=O)Nc1cc(C)ccc1C (stereo unspecified) | inconclusive: 44.7 µM [inhibitor, partial curve] |
| CC(C(=O)Nc1ccc2[nH]c(=O)[nH]c2c1)N(C)Cc1cccc(Cl)c1Cl (stereo unspecified) | inconclusive: 44.7 µM [inhibitor, partial curve, poor fit] |
| CC(C)CN1CCNC(=O)C1CC(=O)NCCc1cnn(-c2ccccc2)c1 (stereo unspecified) | inconclusive: 31.6 µM [inhibitor, partial curve] |
| COC(=O)C[C@H]1c2cc(F)ccc2S(=O)(=O)N1c1ccc(N(C)C)cc1 | inconclusive: 89.1 µM [inhibitor, single point] |
| C[C@H]1CN([C@@H](C)CO)C(=O)CCCn2nncc2CO[C@@H]1CN(C)C(=O)Nc1ccnc(N2CCOCC2)c1 | inconclusive: 8.91 µM [inhibitor, partial curve, poor fit] |
| O=S(=O)(NN=C1CCCCCC1)c1ccc(Cl)cc1 | inconclusive: 44.7 µM [inhibitor, partial curve, poor fit] |
| Cc1ccc(/C=C(\C#N)C(=O)Nc2ccc(Br)cc2)o1 | inactive |
| O=C(Cn1cc(SCc2ccc(Br)cc2)c2ccccc21)N1CCCCC1 | inconclusive: 141 µM [inhibitor, partial curve, poor fit] |
| O=C(Nc1ccccc1Cl)c1cc(C2CCCCN2C(=O)CCCc2ccccc2)on1 (stereo unspecified) | inconclusive: 50.1 µM [inhibitor, partial curve, poor fit] |
| CCN(CC)CCCNC(=O)c1cc(-c2ccc(OC)cc2)nc2ccccc12 | active: 6.31 µM |
| CCn1c(NCC(O)c2ccccc2)nc2c1c(=O)n(C)c(=O)n2C (stereo unspecified) | inactive |
| COc1ccccc1C(=O)Nc1c(C)nc(Nc2ccccc2)nc1Nc1ccccc1 | inconclusive: 7.08 µM [inhibitor, full curve, poor fit] |
